Measurements from PubChem BioAssay AID662 (National Center for Advancing Translational Sciences (NCATS), 2007).
Values joined by “and” are separate entries in the source; they are usually repeats but may differ in a detail not shown here. Equal values may be shown once. The list shows a part of the results. The main result of the screen is listed elsewhere. These columns were measured beside it and carry no call. Most of these compounds were active or inconclusive in the main read-out, so they are no random draw. The note in brackets gives the kind of curve behind each potency; many fits are weak.

Test: Cell signaling CRE-BLA (Fsk stim)
Details: CHO CRE-bla reporter (cAMP response element driving beta-lactamase), forskolin EC10, beta-lactamase ratio; measured here: 460 nm blue channel
Method in brief: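 Modulation of forskolin-driven signalling is measured in CHO cells carrying a CRE-controlled beta-lactamase reporter. Cells are stimulated with EC10 NKH 477 in the presence of titrated compound for 3 h at 37 °C, then loaded with CCF4 for 2 h at room temperature.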
With `CCN(CC)C(=O)C1CCN(Cc2ccc(Br)cc2)CC1` the AC50 was 3.98 µM [falling, single point].
In the case of `CC1CCCCC12NC(=O)N(Cn1nnc3ccccc3c1=O)C2=O` (centres undefined), the AC50 is reported as 1.58 µM [falling, partial curve].
For `COC(=O)c1c(C)cc(C)n2c1nc1ccccc12`, the AC50 was 12.6 µM [rising, single point].
For `COc1cc2c(C#N)c(N3CCN(c4ccccc4OC)CC3)nc(N)c2c(N)n1`, the AC50 was 10 µM [falling, partial curve].
With `O=C(c1cnc2sccn2c1=O)N(Cc1ccccc1)c1ccccn1` the AC50 was 12.6 µM [rising, partial curve].
In the case of `CCn1c(CSc2nnc(-c3ccoc3C)n2C)nc2cc(S(=O)(=O)N(C)C)ccc21`, the AC50 is reported as 5.01 µM [falling, partial curve].
In the case of `COc1ccc2c(=O)c3c(=O)n(Cc4ccco4)c(-c4ccc(C)cc4)nc3oc2c1`, the AC50 is reported as 0.251 µM [rising, full curve].
In the case of `COc1ccc(C2C3=C(CC(C)(C)CC3=O)Oc3ncn(CC(C)C)c(=N)c32)cc1` (centres undefined), the AC50 is reported as 3.16 µM [rising, full curve, poor fit].
In the case of `CCOC(=O)CSc1nc2sc3c(c2c(=O)n1CC)CC(C)(C)OC3`, the AC50 is reported as 10 µM [rising, partial curve].
In the case of `CN(C)Cc1ccccc1-c1ccc2ncnc(NC3CCNCC3)c2c1`, the AC50 is reported as 0.631 µM [rising, full curve].
With `O=c1oc(-c2ccco2)nc2ccccc12` the AC50 was 25.1 µM [rising, single point].
In the case of `CC(C)(C(=O)O)c1ccc([C@@H](O)CCCN2CCC(C(O)(c3ccccc3)c3ccccc3)CC2)cc1`, the AC50 is reported as 31.6 µM [falling, single point].
With `O=C(O)COc1ccc(Br)cc1/C=N/O` the AC50 was 0.01 µM [falling, full curve].
For `Cc1cc2nc(N)sc2cc1C`, the AC50 was 1 µM [rising, full curve, poor fit].
For `COc1ccccc1C(=O)Nc1c2c(nn1-c1cccc(C)c1C)CS(=O)(=O)C2`, the AC50 was 1.26 µM [rising, full curve].
In the case of `N#Cc1c(N)nc2c(c1-c1ccncc1)CCCC2`, the AC50 is reported as 25.1 µM [rising, single point].
In the case of `CCOC(=O)c1cc(CC)sc1NC(=O)Cc1ccsc1`, the AC50 is reported as 2 µM [rising, single point].
For `COc1ccc2[nH]c(=O)c3c(c2c1)OC(C)(C)C=C3`, the AC50 was 10 µM [falling, partial curve] and 5.01 µM [falling, partial curve].
In the case of `CCNc1ncc2nc(CCc3ccccc3)c(=O)n(CCC#N)c2n1`, the AC50 is reported as 10 µM [rising, partial curve].
